## Results of single-concentration screens

Measurements from “University of Dundee, Small-Polar-MMV Screening Library” (2021), ChEMBL document CHEMBL3988442.

Values are the deposited “Percent Effect”, in %.
How 0% and 100% were set is not recorded. Most values in the screen are low, and negative values occur.
The compounds are a random part of those screened.
Two or more numbers in one place are separate tests of the same structure; such repeats can differ widely.

T. brucei: 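Whole-parasite assay of Trypanosoma brucei over 72 hours; the read-out is not stated. Compounds at 30 µM. Direction is inferred from retests: higher values go with stronger inhibition. Values scatter widely below zero; nearly all retest evidence comes from the higher of the two concentrations used. Size under these conditions: about 64,000 compounds, about 940 of them at 50% or above in at least one test.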
Toxoplasma: 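Assay of Toxoplasma gondii numbers, read through their beta-galactosidase reporter with a colour substrate. Compounds at 10 µM. Higher reads as fewer parasites (inferred from which compounds were picked for retests). Of about 67,000 compounds tested this way, about 260 (0.38%) reached 50% or more in at least one test.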
Leishmania in macrophages: 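Cell assay of Leishmania donovani living inside macrophages; the read-out is not stated. Tested at 30 µM. Direction is inferred from retests: higher values go with stronger inhibition. About 69,000 compounds were tested under these conditions; 1.5% (about 1,000) showed 50% or more at least once.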

Result for O=C(O)C(F)(F)F.[H][C@]12C[C@@H](CN(C)C)N(C(C)=O)[C@@]1([H])CCN(C(=O)c1cccc(F)c1)C2 was T. brucei: -9.075%; Toxoplasma: 3.907%; Leishmania in macrophages: -4.573%.
Result for Cc1ccc(C(=O)NC(C)Cn2cccn2)c(=O)[nH]1 (stereo not given) was T. brucei: -19.95%; Toxoplasma: 6.44%; Leishmania in macrophages: 61.08%.
Result for [H][C@@]12OCCN(C(=O)COc3ccc(F)cc3)[C@@]1([H])CC[C@@H]2OCC1CC1 was T. brucei: -67.38%; Toxoplasma: -24.23%; Leishmania in macrophages: 21.74%.
Result for Cn1ncc2c(N3CCS(=O)(=O)CC3)nc(-c3cccnc3)nc21 was T. brucei: 4.662%; Toxoplasma: 6.498%; Leishmania in macrophages: 31.77%.
Result for CCN1CCN(CCNC(=O)c2sc(C)nc2C)CC1 was Toxoplasma: 5.843%; Leishmania in macrophages: 35.33%.
Result for Cn1ccnc1CN1CCCC1Cn1cccn1 (stereo not given) was Toxoplasma: -6.177%; Leishmania in macrophages: 20.85%.
Result for CC(C)(C(=O)N1CCC(CS(N)(=O)=O)CC1)c1ccccc1F was T. brucei: -30.06%; Toxoplasma: -3.753%; Leishmania in macrophages: -36.94%.
Result for CC1(C)OC(=O)N(CC(=O)N2CCC(c3ccccc3F)C2)C1=O (stereo not given) was T. brucei: -1.723%; Toxoplasma: -1.358%; Leishmania in macrophages: 27.78%.
Result for CCN(Cc1cccnc1)CC1(C)Cc2c(N)nc(N)nc2O1 (stereo not given) was T. brucei: -21.17%; Toxoplasma: -23.54%; Leishmania in macrophages: 30.67%.
Result for O=C(N[C@@H]1CCN(Cc2ccc(F)cc2F)C[C@H]1O)c1cccnc1 was T. brucei: -43.91%; Toxoplasma: -12.63%; Leishmania in macrophages: -11.95%.
Result for N#Cc1nccnc1NC1CCN(c2ccccc2OC(F)F)C1 (stereo not given) was T. brucei: -39.29%; Toxoplasma: -4.356%; Leishmania in macrophages: 16.92%.
Result for O=C1CNc2ncnc(N3CCN(Cc4ccccc4F)CC3)c2N1 was T. brucei: 5.99%; Toxoplasma: -35.06%; Leishmania in macrophages: 9.169%.
Result for CN(CC(=O)NC(C)(C#N)C1CC1)Cc1nnc(C2CC2)n1C (stereo not given) was T. brucei: -1.792%; Toxoplasma: 16.79%; Leishmania in macrophages: 3.617%.
Result for COc1ccc(OCC2CCCN(Cc3ccncc3)C2)cc1 (stereo not given) was T. brucei: 18.56%; Toxoplasma: -2.057%; Leishmania in macrophages: 30.37%.
Result for CN(C)c1cnn(CC(=O)N2CCN(Cc3cccs3)CC2)c(=O)c1 was T. brucei: -7.954%; Toxoplasma: -9.548%; Leishmania in macrophages: 13.22%.
Result for CCNC(=O)CN1CCCN(C(=O)C2CCCc3[nH]ncc32)CC1 (stereo not given) was T. brucei: -16.23%; Toxoplasma: -1.754%; Leishmania in macrophages: 8.335%.
Result for CCN1CCn2cc(CNC(=O)c3cnn(C)c3)nc2C1.O=C(O)C(F)(F)F.O=C(O)C(F)(F)F was T. brucei: -41.96%; Toxoplasma: 2.996%; Leishmania in macrophages: -35.44%.
Result for Cc1c[nH]nc1C1CCCN(C(=O)c2c(C)noc2C)C1 (stereo not given) was T. brucei: -22.58%; Toxoplasma: 2.327%; Leishmania in macrophages: 6.148% and 8.1%.
Result for Cc1nc(CNCC2CCCN2c2cccnn2)oc1C (stereo not given) was T. brucei: -34.5%; Toxoplasma: 12.34%; Leishmania in macrophages: -7.11%.
Result for CN(Cc1ccc(F)cc1)C(=O)NCC1(N2CCOCC2)CCSC1 (stereo not given) was T. brucei: -7.837%; Toxoplasma: -2.077%; Leishmania in macrophages: 6.492%.
Result for O=C1NCCN1C1CCCN(Cc2coc(-c3cccs3)n2)C1 (stereo not given) was T. brucei: -16.79%; Toxoplasma: -65.68%; Leishmania in macrophages: 28.84%.
Result for CC1(C)CN=C(N2CCN(CC3CCOC3)CC2)S1 (stereo not given) was T. brucei: -47.93%; Toxoplasma: 3.165%; Leishmania in macrophages: -21.79%.
Result for COCc1noc(-c2ccc(N3CCCCC3CCCO)nc2)n1 (stereo not given) was T. brucei: 5.787%; Toxoplasma: 7.721%; Leishmania in macrophages: -21.23%.
Result for CCCN(CC)C(=O)c1cc2c(c3ccccc3n2C)n1C(=O)N(C)C was T. brucei: 14.72%; Toxoplasma: -24.61%; Leishmania in macrophages: 15.31%.
Result for O=C(CCO)N[C@H]1CN(CC2CCC2)C[C@@H]1c1ccccc1 was T. brucei: -22.22%; Toxoplasma: 3.79%; Leishmania in macrophages: 16.39%.
Result for CCC(NC(=O)c1cnc(N(C)C)nc1C)c1ccncc1 (stereo not given) was T. brucei: -63.35%; Toxoplasma: 0.9671%; Leishmania in macrophages: 16.86%.
Result for O=C(O)C(F)(F)F.O=C(O)C(F)(F)F.[H][C@@]12CCCO[C@]1([H])[C@H](NS(C)(=O)=O)CN(Cc1ccncc1)C2 was T. brucei: -10.65%; Toxoplasma: 3.718%; Leishmania in macrophages: 17.52%.
Result for O=C(O)C(F)(F)F.O=C1CCCN1Cc1nnc2n1CCN(Cc1ccoc1)CC2 was T. brucei: -22.84%; Toxoplasma: -0.2112%; Leishmania in macrophages: 3.93%.
Result for CN(C)CC(=O)N1CCC2(CC1)CN(c1ccsc1)C(=O)CO2.O=C(O)C(F)(F)F was T. brucei: -17.17%; Toxoplasma: -1.387%; Leishmania in macrophages: 2.608%.
Result for O=C(c1cnccn1)N1CCc2c(COCC3CC3)cncc2C1 was T. brucei: -10.11%; Toxoplasma: -1.277%; Leishmania in macrophages: 20.71%.
Result for CN(Cc1ccc(F)cc1)C(=O)Cn1nc(-c2ccc(F)cc2)oc1=O was T. brucei: -34.94%; Toxoplasma: 0.8547%; Leishmania in macrophages: 19.14%.
Result for CNC(=O)c1cccc(NC(=O)NC(C)CCc2cccn2C)c1C (stereo not given) was T. brucei: -37.88%; Toxoplasma: -13.61%; Leishmania in macrophages: 1.99%.
Result for COCc1cc(N2CCc3onc(-c4cccc(OC)c4)c3C2)ncn1 was T. brucei: -15.27%; Toxoplasma: -0.4063%; Leishmania in macrophages: 9.874%.
Result for COCCN(Cc1cccc(OCCO)c1)Cc1ccccc1F was T. brucei: 12.34%; Toxoplasma: 4.661%; Leishmania in macrophages: 27.53%.
Result for O=C1Cc2cc(NC(=O)N3CCCN(Cc4cccs4)CC3)ccc2N1 was T. brucei: 5.644%; Toxoplasma: 5.125%; Leishmania in macrophages: 33.27%.
Result for O=S(=O)(c1cn[nH]c1)N1CCC(O)(CN2CCOCC2)C1 (stereo not given) was T. brucei: -16.89%; Toxoplasma: 20.1%; Leishmania in macrophages: -29.9%.
Result for [H][C@]12CCCN(S(=O)(=O)c3ccc4c(c3)CCC4)[C@@]1([H])CN(C(=O)C1CC1)C2 was T. brucei: -6.185%; Toxoplasma: -33.97%; Leishmania in macrophages: -12.29%.
Result for CCc1ncc2c(n1)CN(C(=O)CCCc1ccc(OC)cc1)C2 was T. brucei: 33.62%; Toxoplasma: -0.9798%; Leishmania in macrophages: 42.05%.

The first 3 entries again:

O=C(O)C(F)(F)F.[H][C@]12C[C@@H](CN(C)C)N(C(C)=O)[C@@]1([H])CCN(C(=O)c1cccc(F)c1)C2 gave T. brucei: -9.075%; Toxoplasma: 3.907%; Leishmania in macrophages: -4.573%.
Cc1ccc(C(=O)NC(C)Cn2cccn2)c(=O)[nH]1 (stereo not given) gave T. brucei: -19.95%; Toxoplasma: 6.44%; Leishmania in macrophages: 61.08%.
[H][C@@]12OCCN(C(=O)COc3ccc(F)cc3)[C@@]1([H])CC[C@@H]2OCC1CC1 gave T. brucei: -67.38%; Toxoplasma: -24.23%; Leishmania in macrophages: 21.74%.